Assay results reported in PubChem BioAssay AID1420 (Emory University Molecular Libraries Screening Center, 2008).
About 65 (6%) of roughly 1,100 compounds were called active. No rule for the calls is given here. The entries are a selection whose mix differs from that of the whole data set. Measured potencies and affinities stand elsewhere.

Amino acid sequences for entries named in this document (tags omitted). A change or cut given only in a name is not applied to a line headed by its entry.
UniProt P43367: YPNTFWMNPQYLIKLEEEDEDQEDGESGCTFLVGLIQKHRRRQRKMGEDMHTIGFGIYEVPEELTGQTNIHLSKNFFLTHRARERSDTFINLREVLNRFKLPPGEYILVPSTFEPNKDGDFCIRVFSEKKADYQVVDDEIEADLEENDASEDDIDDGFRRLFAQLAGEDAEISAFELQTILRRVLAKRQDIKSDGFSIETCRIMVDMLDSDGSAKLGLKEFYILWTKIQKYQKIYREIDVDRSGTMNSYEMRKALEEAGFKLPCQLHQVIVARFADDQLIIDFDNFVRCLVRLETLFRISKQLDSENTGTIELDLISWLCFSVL

target: Calpain-2 catalytic subunit (Sus scrofa) (UniProt P43367); assay: pig calpain II inhibitor potency, dose response, biochemical, fluorogenic peptide substrate (AID 1420); conditions: purified calpain II, 30 min; at 50 µM (top of the series)

Structure (SMILES)	percent of control activity
CC(C)Oc1cc(-n2c(=S)[nH]c3ccccc3c2=O)c(Cl)cc1Cl	inactive: 81.9%
COc1ccc2[nH]c(C)c(CCN3CCC(=O)C(C)C3C)c2c1 (configuration not stated)	inactive: 93.5%
